Results as given in publication PMC4552788.
Results are given in words; binding and its absence hold for the method and conditions named. Binding calls can cover weak binding; strength is not graded here.

Amino acid sequences for entries named in this document (tags omitted).
UniProt Q9S7R5: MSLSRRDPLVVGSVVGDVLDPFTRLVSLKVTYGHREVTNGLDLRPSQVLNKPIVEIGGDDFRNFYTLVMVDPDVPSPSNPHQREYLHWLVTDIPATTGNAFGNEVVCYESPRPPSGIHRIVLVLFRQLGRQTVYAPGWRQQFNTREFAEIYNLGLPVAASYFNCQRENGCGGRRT
UniProt Q93WI9: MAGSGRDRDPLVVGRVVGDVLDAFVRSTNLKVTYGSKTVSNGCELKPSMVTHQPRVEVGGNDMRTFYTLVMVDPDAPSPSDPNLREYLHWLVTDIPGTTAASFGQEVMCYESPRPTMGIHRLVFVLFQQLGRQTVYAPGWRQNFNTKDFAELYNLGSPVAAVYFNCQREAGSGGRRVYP
UniProt Q8VWH2: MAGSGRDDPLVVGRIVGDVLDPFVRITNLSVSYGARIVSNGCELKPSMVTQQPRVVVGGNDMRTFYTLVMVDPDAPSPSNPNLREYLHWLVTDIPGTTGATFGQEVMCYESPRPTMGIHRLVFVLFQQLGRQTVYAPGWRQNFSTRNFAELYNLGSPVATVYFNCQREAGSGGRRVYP
UniProt Q9SXZ2: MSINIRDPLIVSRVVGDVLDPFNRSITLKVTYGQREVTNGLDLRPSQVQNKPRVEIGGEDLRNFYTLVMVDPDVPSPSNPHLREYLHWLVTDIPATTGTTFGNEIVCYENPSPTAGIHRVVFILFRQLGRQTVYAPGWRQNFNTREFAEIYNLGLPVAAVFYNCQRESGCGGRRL

Assays:
[1] = molecular target: OnFT (Oncidium orchid FT), yeast two-hybrid fusion (Oncidium Gower Ramsey) (UniProt B2LU35); test: two-hybrid; directed test of pairs in yeast (Fig 7B): FT proteins against pAD:PaFD, its deletion and point mutants; AtFT with AtFD as positive control
[2] = molecular target: PaFT1 (Phalaenopsis aphrodite FLOWERING LOCUS T1), yeast two-hybrid bait pBD:PaFT1 (Phalaenopsis aphrodite subsp. formosana); test: as above
[3] = molecular target: AtTSF, yeast two-hybrid fusion (Arabidopsis) (UniProt Q9S7R5); test: as above
[4] = molecular target: Hd3a (Heading date3a), yeast two-hybrid fusion (rice) (UniProt Q93WI9); test: as above
[5] = molecular target: RFT1, yeast two-hybrid fusion (rice) (UniProt Q8VWH2); test: as above
[6] = molecular target: AtFT (Arabidopsis FLOWERING LOCUS T), yeast two-hybrid fusion (Arabidopsis) (UniProt Q9SXZ2); test: as above
[7] = molecular target: PaFT1 (Phalaenopsis aphrodite FLOWERING LOCUS T1), yeast two-hybrid bait pBD:PaFT1 (Phalaenopsis aphrodite subsp. formosana); test: two-hybrid; library screen in yeast: bait pBD:PaFT1 (pBD-GAL4 Cam) against a GAL4 AD cDNA library from young spikes of P. aphrodite subsp. formosana; X-gal filter assay

Measured: binding

PaFD, yeast two-hybrid prey pAD:PaFD (from UniProt A0A0N7AL13)
binds: all assays above
